Results taken from US20220193133A1.
No constants are given. Whether binding was seen depends on the method and setting. Some binding calls cover weakened binding; strength is not graded here. For some assays here: Where a sequence is shown, tags or fusion partners need not be part of it.

B1: huB11_CNTY3+4_A01 anti-idiotype VHH (periplasmic extract) (VHH)
VHH: EVQLLESGGGLVQPGGSLRLSCAASGFTFSSYSIGWYRQAPGKERELVSVISSGGSTYYADSVKGRFTISRDNSKNTLYLQMNSLRAEDTAVYYCAASDWSYSWITYTGTWRLYEYWGQGTQVTVSS
B2: huB11_CNTY3+4_A02 anti-idiotype VHH (periplasmic extract) (VHH)
VHH: EVQLLESGGGLVQPGGSLRLSCAASGRTYTGSAMGWYRQAPGKERELVSAISTGGETYYADSVKGRFTISRDNSKNTLYLQMNSLRAEDTAVYYCAAGYVGLPYTYRPATSRRGYTYWGQGTQVTVSS
B3: AMD71 (huB11_CNTY3+4_A02 anti-idiotype VHH IgG1-Fc fusion) (Fc fusion, not shown: a dimerising Fc or GST)
chain: B2 VHH
B4: AMD73 (Fc fusion)
VHH-Fc: B1 VHH
B5: AMD88 (huD04_CNTY1_D10 anti-idiotype VHH IgG1-Fc fusion) (Fc fusion, not shown: a dimerising Fc or GST)
chain: EVQLLESGGGLVQPGGSLRLSCAASGRTSSNYVIGWYRQAPGKEREFVSAISGGGSTYYADSVKGRFTISRDNSKNTLYLQMNSLRAEDTAVYYCATRIYTARGAGDYWGQGTQVTVSS

Columns and labels:
[1] = molecular target: B11 protein (humanized B11 VHH as ELISA antigen); assay: periplasmic extract ELISA, absorbance 450 nm, single point
[2] = molecular target: B11 protein (humanized B11 VHH as ELISA antigen); assay: periplasmic extract ELISA after phage panning
[3] = molecular target: humanized B11 VHH CAR (hyLYSO_CW_P01_B11) on Nurkat cells; assay: flow cytometry after overnight incubation of Nurkat cells with 10 nM biotinylated protein, streptavidin-APC, % positive cells
[4] = molecular target: humanized B11 VHH CAR (hyLYSO_CW_P01_B11) on Nurkat cells; assay: FACS, VHH-Fc on CAR Nurkat cells, anti-Fc APC
[5] = molecular target: humanized B11 VHH CAR (hyLYSO_CW_P01_B11) on Nurkat cells; assay: flow cytometry, biotinylated protein (50 nM) on CAR Nurkat cells, streptavidin-APC, % positive cells
[6] = molecular target: humanized B11 VHH CAR (hyLYSO_CW_P01_B11) on Nurkat cells; assay: FACS, biotinylated VHH-Fc on CAR Nurkat cells, streptavidin-APC
[7] = molecular target: humanized B11 VHH CAR (hyLYSO_CW_P01_B11) on Nurkat cells; assay: flow cytometry, VHH-Fc on CAR Nurkat cells, 3-fold dilutions 50 to 0.02 nM, anti-Fc APC, %Fc positive cells
[8] = molecular target: D04-his tagged VHH (humanized D04); assay: Octet (BLI) specificity analysis

| Binder | binding [1] | binding [2] | binding [7] | further results |
| --- | --- | --- | --- | --- |
| B1 | binds | binds | – | – |
| B2 | binds | binds | – | – |
| B3 | – | – | binds | binding [3]: binds; binding [4]: binds; binding [5]: binds; binding [6]: binds |
| B4 | – | – | binds | – |
| B5 | – | – | – | binding [8]: binds |
